{"source": "patent US20100119609A1", "about": "“METHODS, COMPOSITIONS, AND FORMULATIONS FOR THE TREATMENT OF THYROID EYE DISEASE” (priority 2006, published 2010)", "key": {"[1]": {"tested_on": "cultured human adipocytes", "experiment": "In vitro lipolysis assay (glycerol release) in cultured adipocytes", "assay_type": "cell-based", "details": "three hour incubation", "experimental": "In the in vitro lipolysis assay, glycerol was detected in cell culture media via a spectrophotometric measurement after chemical oxidation with hydrogen peroxide. Glycerol was measured over a three hour time period. Levels of lipolysis in cultured human adipocytes were tested after exposure to a beta agonist alone, a glucocorticosteroid alone, or the combination of the two for one or more preincubation periods as described in more detail below.\nHuman subcutaneous adipocytes were used in the lipolysis assay. Adipose tissue was harvested from liposuction or lipectomy and pre-adipocytes were isolated as follows. Briefly, fat tissue was minced and incubated at 37° C. in Krebs-Ringer bicarbonate buffer containing 1% bovine serum albumin and 0.1% collagenase in an oxygen-rich shaking chamber (5% CO2; 75 strokes/min) for 1 hour. The suspension was filtered through a 400 tim nylon mesh and centrifuged for 1 mm at 100 g. The pre-adipocytes in the […] were washed twice with and then plated in 96 well plates at a density of cells/well. The pre-adipocytes were cultured in maintenance medium for seven days as they differentiated into adipocytes.\nAt −21 hours before the lipolysis assay, medium was removed from each well and replaced with 75 μl of Maintenance Medium containing appropriate drug or DMSO (vehicle) concentrations (see Experimental Design section below). Each test drug or control treatment was applied to 8 wells/group (12 treatment groups per 96-well plate). At −3 hours prior to the lipolysis assay, each well was washed two times with Wash Buffer (200 μl/wash), filled with test or control solutions made up in Assay Buffer (75 μl/well), and then incubated for three hours, i.e., until measurement of glycerol content in the Assay Buffer. For some groups, a drug was only added for the three hour incubation period (see Experimental and Control Groups Below).\nThe glycerol content of the Assay Buffer from each well following the incubation was used as an index for lipolysis, where an increase in glycerol indicated lipolysis. Glycerol levels were assayed colorimetrically via a commercial glycerol assay kit (Randox Laboratory, United Kingdom) and quantified by comparison to a glycerol serial dilution standard curve (3 μM-200 μM). Glycerol concentrations for each well were normalized to cell density.\nIn each of the following control or experimental groups n=8 corresponding to the glycerol measurements for 8 wells from a 96-well cell culture plate."}, "epididymal fat pad": {"tested_on": "epididymal fat pad", "experiment": "Epididymal fat pad mass in rats after local injection (in vivo lipolysis assay)", "design": "species or system rat"}}, "note": "“And” between values parts separate entries of the source, which are not always exact repeats. Equal entries are not always repeated.", "data": [{"smiles": "COc1ccc(C[C@@H](C)NC[C@H](O)c2ccc(O)c(NC=O)c2)cc1", "note": "(racemic) [Formoterol, N-[2-hydroxy-5-[1-hydroxy-2-[1-(4-methoxyphenyl)propan-2-ylamino]ethyl]-phenyl]methanamide]", "values": [{"measurement": "effect on lipolysis in cultured adipocytes (words)", "setting": "[1]", "result": "dose-dependent induction of lipolysis"}, {"measurement": "lipolysis compared with isoproterenol (positive control)", "setting": "[1]; concentrations of 10^−6 M and above, isoproterenol 10^−6 M", "result": "greater than that observed for isoproterenol"}, {"measurement": "increase in lipolysis relative to negative control", "setting": "[1]; glycerol in Assay Buffer, isoproterenol 10^−6 M", "result": "greater than six fold"}, {"measurement": "effect on lipolysis in cultured adipocytes (words)", "setting": "[1]; listed as formoterol", "result": "effectively induce lipolysis"}, {"measurement": "Fat Pad Weight Δ (drug-vehicle), individual animal", "setting": "epididymal fat pad; male Sprague Dawley rats, three daily injections, Formoterol 1.39 μg, Budesonide 4 μg, contralateral pad vehicle (2% PEG), listed as Formoterol alone", "result": "-0.036 g and -0.138 g and 0.118 g and 0.166 g"}, {"measurement": "treatment effect on epididymal fat pad mass", "setting": "epididymal fat pad; three day treatment period", "result": "no trend toward a treatment effect"}]}]}
